From article PMC6974163
Results are given in words; binding and its absence hold for the method and conditions named. For some of these results: Binding seen in cells or lysates may run through a third protein. Some binding calls cover weakened binding; strength is not graded here. Tags and fused reporters may be left off the sequences shown.

T1: full-length murine FRAT2 (amino acids 1-232), LexA fusion bait (mouse) (UniProt Q8K025)
T1 sequence: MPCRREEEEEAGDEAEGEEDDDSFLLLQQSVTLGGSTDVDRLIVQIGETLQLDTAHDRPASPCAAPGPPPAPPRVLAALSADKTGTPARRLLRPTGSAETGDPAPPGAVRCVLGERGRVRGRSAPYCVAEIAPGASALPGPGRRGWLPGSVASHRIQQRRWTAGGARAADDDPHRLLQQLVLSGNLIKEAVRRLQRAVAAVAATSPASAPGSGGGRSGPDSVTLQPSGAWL

T2: FRAT2ΔN (murine Frat2 amino acids 139-232), LexA fusion bait (mouse) (UniProt Q8K025)
T2 sequence: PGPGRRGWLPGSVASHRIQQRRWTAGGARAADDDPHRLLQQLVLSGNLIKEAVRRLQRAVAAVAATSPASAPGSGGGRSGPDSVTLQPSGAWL

T3: full-length TMEM98-FLAG (murine, amino acids 1-226) (mouse) (UniProt Q91X86)
T3 sequence: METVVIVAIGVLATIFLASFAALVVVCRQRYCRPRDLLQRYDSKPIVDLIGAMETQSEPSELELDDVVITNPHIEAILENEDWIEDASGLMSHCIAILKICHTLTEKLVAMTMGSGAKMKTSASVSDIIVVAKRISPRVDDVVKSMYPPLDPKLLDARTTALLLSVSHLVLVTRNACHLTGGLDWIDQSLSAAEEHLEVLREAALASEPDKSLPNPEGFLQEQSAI


Columns and labels:
[1] = target: T1, full-length murine FRAT2 (amino acids 1-232), LexA fusion bait (mouse); assay: two-hybrid; Hybrigenics screen; LexA fusion of full-length Frat2 as bait in L40ΔGAL4 yeast, mated with a human fetal brain random-primed cDNA library in Y187 yeast; selection on medium lacking leucine, tryptophane and histidine; no auto-activation of the bait; 95 million interactions tested
[2] = target: T2, FRAT2ΔN (murine Frat2 amino acids 139-232), LexA fusion bait (mouse); assay: two-hybrid; Hybrigenics screen; LexA fusion of Frat2ΔN as bait in L40ΔGAL4 yeast, mated with a human fetal brain random-primed cDNA library in Y187 yeast; selection on medium lacking leucine, tryptophane and histidine; bait auto-activates, 50 mM 3-aminotriazole; 87 million interactions tested
[3] = target: T3, full-length TMEM98-FLAG (murine, amino acids 1-226) (mouse); assay: co-IP; lysates of transiently transfected HEK293TN cells; anti-FLAG (M2) antibody at 4°C, protein G sepharose, washes in RIPA buffer; Western blot

Binder | binding [1] | binding [2] | binding [3]
TMEM98 (human), prey clones of the yeast two-hybrid screens (domain or fragment, UniProt Q9Y2Y6 66-226) DVVITNPHIEAILENEDWIEDASGLMSHCIAILKICHTLTEKLVAMTMGSGAKMKTSASVSDIIVVAKRISPRVDDVVKSMYPPLDPKLLDARTTALLLSVSHLVLVTRNACHLTGGLDWIDQSLSAAEEHLEVLREAALASEPDKGLPGPEGFLQEQSAI | binds | binds | –
myc-FRAT2 (protein, UniProt Q8K025 1-231) MPCRREEEEEAGDEAEGEEDDDSFLLLQQSVTLGGSTDVDRLIVQIGETLQLDTAHDRPASPCAAPGPPPAPPRVLAALSADKTGTPARRLLRPTGSAETGDPAPPGAVRCVLGERGRVRGRSAPYCVAEIAPGASALPGPGRRGWLPGSVASHRIQQRRWTAGGARAADDDPHRLLQQLVLSGNLIKEAVRRLQRAVAAVAATSPASAPGSGGGRSGPDSVTLQPSGAWL | – | – | binds
myc-FRAT1 (protein, UniProt P70339 1-274) MPCRREEEEEAGDEAEGEEDDDSFLLLQQSVTLGGSTDVDQLIVQIGETLQLDAAHDRPASPCAAPGPPPPQVLAALPADKTGTPARRLLRPTGSAETGNPAPPGAVRCVLGERGRVRGRSAPYCVAEISPGASALPQQPGLDGPPGTGKLSTPQPLSGPCRRGWLRNAAASRRLQQRRGSQPETRTGDDDDPHRLLQQLVLSGNLIKEAVRRLHSRQLQLHAKLPAHPFLGPLSAPVHEPPSPGSPRAACSDPGAFMGRAQLRTGDDLLVPGS | – | – | binds
